Laboratory results published in US9533977B2, “Oxazolidinone derivative as CETP inhibitor, its preparation method, and pharmaceutical composition comprising the same” (DONG-A ST CO., LTD., priority 2013, dated 2017).
Some entries share one result that the patent states for a list of compounds.

Tested on: CETP
Assay: Effect on CETP activity in hamster administered with single dose
Assay type: in vivo, Golden Syrian hamsters
Details: hamsters, single oral dose 100 mg/kg, blood 0.5-24 hrs after administration, compared to pre-treatment
Experimental: Each of the compounds of the Examples was orally administered at a dose of 100 mg/kg to three 7-week-old male Golden Syrian hamsters per group. Blood samples were taken from the retro-orbital plexus before administration and 0.5, 1, 2, 4, 6, 8, and 24 hrs after administration, and measured for blood CETP activity using a Roar CETP activity assay kit (Cat#: RB-CETP, Roar Biomedical Inc.).

SMILES | Relative Maximal Inhibition of CETP Activity to Pre-Administration (%)
CCN(CC1CCC(CC(=O)O)CC1)c1ncc(-c2ccsc2)nc1CN1C(=O)OC(c2cc(C(F)(F)F)cc(C(F)(F)F)c2)C1C [Example 105, trans-4-({[3-({(4S,5S)-5-[3,5-bis(trifluoromethyl)phenyl]-4-methyl-2-oxazolidin-3-yl}methyl)-5-(thiophen-3-yl)pyrazin-2-yl]{[N-(ethyl)aminomethyl]cyclohexyl)}acetic acid] | 45˜72%
CCN(c1ncc(-c2ccsc2)cc1CN1C(=O)O[C@H](c2cc(C(F)(F)F)cc(C(F)(F)F)c2)[C@@H]1C)C1CCCCC1 [Example 77, (4S,5R)-5-[3,5-bis(trifluoromethyl)phenyl]-4-methyl-3-({[2-(ethyl)(cyclohexyl)amino]-5-(thiophen-3-yl)pyridin-3-yl}methyl)-oxazolidin-2-one] | 45˜72%
CCN(c1ncc(N2CCCC2C)cc1CN1C(=O)O[C@H](c2cc(C(F)(F)F)cc(C(F)(F)F)c2)[C@@H]1C)C1CCCCC1 (stereo partly drawn) [Example 89, (4S,5R)-5-[3,5-bis(trifluoromethyl)phenyl]-4-methyl-3-({[2-(ethyl)(cyclohexyl)amino]-5-(2-methyl-pyrrolidin-1-yl)pyridin-3-yl}methyl)-oxazolidin-2-one] | 45˜72%
CCN(C[C@H]1CC[C@H](CC(=O)O)CC1)c1ncc(N2CCCC2)nc1CN1C(=O)OC(c2cc(C(F)(F)F)cc(C(F)(F)F)c2)[C@@H]1C (stereo partly drawn) [Example 103] | 45˜72%
CCN(c1ncc(-c2cccn2C)cc1CN1C(=O)O[C@H](c2cc(C(F)(F)F)cc(C(F)(F)F)c2)[C@@H]1C)C1CCCCC1 [Example 56, (4S,5R)-5-[3,5-bis(trifluoromethyl)phenyl]-4-methyl-3-({[2-(ethyl)(cyclohexyl-4-yl)amino]-5-(1-methyl-1H-pyrrol-2-yl)pyridin-3-yl}methyl) oxazolidin-2-one] | 45˜72%
CCN(c1ncc(N2CCCC2)cc1CN1C(=O)O[C@H](c2cc(C(F)(F)F)cc(C(F)(F)F)c2)[C@@H]1C)C1CCCCC1 [Example 88, (4S,5R)-5-[3,5-bis(trifluoromethyl)phenyl]-4-methyl-3-({[2-(ethyl)(cyclohexyl)amino]-5-(pyrrolidin-1-yl)pyridin-3-yl}methyl)-oxazolidin-2-one] | 45˜72%
CCCN(CC1CCC(CC(=O)O)CC1)c1ncc(C2CC2)nc1CN1C(=O)OC(c2cc(C(F)(F)F)cc(C(F)(F)F)c2)C1C (stereo not drawn) [Example 125] | 45˜72%
CCCN(C[C@H]1CC[C@H](CC(=O)O)CC1)c1ncc(N2CCCC2)nc1CN1C(=O)OC(c2cc(C(F)(F)F)cc(C(F)(F)F)c2)[C@@H]1C (stereo partly drawn) [Example 124] | 45˜72%
CCN(c1ncc(-c2c(C)noc2C)nc1CN1C(=O)O[C@H](c2cc(C(F)(F)F)cc(C(F)(F)F)c2)[C@@H]1C)C1CCCCC1 [Example 96, (4S,5R)-5-[3,5-bis(trifluoromethyl)phenyl]-4-methyl-3-({[2-(ethyl)(cyclohexyl)amino]-5-(3,5-dimethyl-isoxazol-4-yl)pyrazin-3-yl}methyl)-oxazolidin-2-one] | 45˜72%
CCN(c1ncc(-c2c(C)noc2C)cc1CN1C(=O)O[C@H](c2cc(C(F)(F)F)cc(C(F)(F)F)c2)[C@@H]1C)C1CCCCC1 [Example 58, (4S,5R)-5-[3,5-bis(trifluoromethyl)phenyl]-4-methyl-3-({[2-(ethyl)(cyclohexyl)amino]-5-(3,5-dimethylisoxazol-4-yl)pyridin-3-yl}methyl)-oxazoliclin-2-one] | 45˜72%
CCN(c1ncc(-c2cccn2C)cc1CN1C(=O)O[C@H](c2cc(C(F)(F)F)cc(C(F)(F)F)c2)[C@@H]1C)C1CCOCC1 [Example 50, (4S,5R)-5-[3,5-bis(trifluoromethyl)phenyl]-4-methyl-3-({[2-(ethyl)(tetrahydro-2H-pyran-4-yl)amino]-5-(1-methyl-1H-pyrrol-2-yl)pyridin-3-yl}methyl)-oxazolidin-2-one] | 45˜72%
CCN(c1ncc(-c2csnc2C)cc1CN1C(=O)O[C@H](c2cc(C(F)(F)F)cc(C(F)(F)F)c2)[C@@H]1C)C1CCCCC1 [Example 87, (4S,5R)-5-[3,5-bis(trifluoromethyl)phenyl]-4-methyl-3-({[2-(ethyl)(cyclohexyl)amino]-5-(3-methyl-isothioxazol-4-yl)pyridin-3-yl}methyl)-oxazolidin-2-one] | 45˜72%
